# Data source: PubChem BioAssay AID1224830 (NIAID, 2016)
# Test: 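Host factors that control LPS-induced TNF expression in human macrophages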 (primary screen)
# Cells: human THP-1 monocytic leukaemia cells, TNF dual-luciferase reporter clone, PMA-differentiated to macrophage-like cells
# Knock-down reagent: siRNA pool against human genes, 50 nM
# Duration: LPS for 4 h, given about 3 days after siRNA transfection
# Conditions: bacterial LPS (TLR4 ligand), 10 ng/ml
# Measured: 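Ratio of firefly to renilla light, scaled to the plate median and expressed as a robust z-score per replicate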
# Direction: TNF reporter robust z-score: higher = stronger TNF reporter response to LPS
# Rule for the call: 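Each well counts as active if its z-score is over 2.8 or under -1.5; controls are left without a call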
# The whole screen tested about 18,000 reagents; below is a part drawn at random. About 2,900 of them (16%) count as active. 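Calls are made per well; low scores hint the gene aids the LPS response, high scores that it dampens it.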 Repeated entries: four replicate wells of each siRNA pool.
gene,TNF reporter robust z-score,Call
GLO1,1.65,inactive
GLO1,2.19,inactive
GLO1,0.15,inactive
GLO1,1.8,inactive
UBTF,-0.82,inactive
UBTF,0.56,inactive
UBTF,-0.44,inactive
UBTF,0.91,inactive
ACACB,-0.91,inactive
ACACB,-0.42,inactive
ACACB,-1.01,inactive
ACACB,-0.07,inactive
RPL32,-1.7,active
RPL32,-1.38,inactive
RPL32,-0.98,inactive
RPL32,0.36,inactive
SLC49A3,-0.12,inactive
SLC49A3,-0.48,inactive
SLC49A3,0.12,inactive
SLC49A3,-0.44,inactive
TPM3,0,inactive
TPM3,0.74,inactive
TPM3,-0.35,inactive
TPM3,-0.04,inactive
MED9,-0.6,inactive
MED9,-0.55,inactive
MED9,-0.31,inactive
MED9,0.89,inactive
ARL5A,0.06,inactive
ARL5A,-0.11,inactive
ARL5A,0.45,inactive
ARL5A,1.02,inactive
CD44,-1.41,inactive
CD44,-0.92,inactive
CD44,-0.05,inactive
CD44,-0.47,inactive
CRTC3,3.23,active
CRTC3,4.95,active
CRTC3,0.57,inactive
CRTC3,0.77,inactive
ZNF787,-0.35,inactive
ZNF787,1.3,inactive
ZNF787,0.3,inactive
ZNF787,0.89,inactive
CNTN1,0.52,inactive
CNTN1,2.25,inactive
CNTN1,1.36,inactive
CNTN1,0.31,inactive
DZIP1,1.32,inactive
DZIP1,1.02,inactive
DZIP1,0.45,inactive
DZIP1,1.89,inactive
UBA6,-1.19,inactive
UBA6,1.77,inactive
UBA6,0.56,inactive
UBA6,0.16,inactive
OR1J2,-0.24,inactive
OR1J2,0.12,inactive
OR1J2,-0.79,inactive
OR1J2,0.85,inactive
AKR1B15,-0.72,inactive
AKR1B15,-1.47,inactive
AKR1B15,-0.88,inactive
AKR1B15,-0.66,inactive
SOX17,-0.88,inactive
SOX17,-1.03,inactive
SOX17,-0.55,inactive
SOX17,-0.8,inactive
ACACA,0.28,inactive
ACACA,0.37,inactive
ACACA,-0.37,inactive
ACACA,0.91,inactive
VHL,-0.63,inactive
VHL,-0.36,inactive
VHL,0.17,inactive
VHL,-1.06,inactive
RFPL4A,-0.9,inactive
RFPL4A,0.62,inactive
RFPL4A,-0.7,inactive
RFPL4A,0.48,inactive
HSPA1B,0.09,inactive
HSPA1B,0.27,inactive
HSPA1B,0.04,inactive
HSPA1B,2.21,inactive
RCE1,-0.1,inactive
RCE1,-0.95,inactive
RCE1,-1.3,inactive
RCE1,-0.61,inactive
DOCK6,1.35,inactive
DOCK6,0.6,inactive
DOCK6,0.71,inactive
DOCK6,2.24,inactive
OVOL1,-0.48,inactive
OVOL1,-0.52,inactive
OVOL1,-0.15,inactive
OVOL1,-0.07,inactive
GPR3,0.71,inactive
GPR3,0.09,inactive
GPR3,-0.71,inactive
GPR3,-0.32,inactive
KIAA1328,1.8,inactive
KIAA1328,1.89,inactive
KIAA1328,1.65,inactive
KIAA1328,1.53,inactive
SRY,1.49,inactive
SRY,2.48,inactive
SRY,0.99,inactive
SRY,2.87,active
ETFBKMT,0.44,inactive
ETFBKMT,1.8,inactive
ETFBKMT,-0.32,inactive
ETFBKMT,-0.37,inactive
